No constants are given. Whether binding was seen depends on the method and setting. In cells and extracts the contact can be indirect. Some entries that bind do so weakly or less than the wild type. Where a sequence is shown, tags or fusion partners need not be part of it.

Amino acid sequences for entries named in this document (tags omitted).
UniProt Q6XZF7: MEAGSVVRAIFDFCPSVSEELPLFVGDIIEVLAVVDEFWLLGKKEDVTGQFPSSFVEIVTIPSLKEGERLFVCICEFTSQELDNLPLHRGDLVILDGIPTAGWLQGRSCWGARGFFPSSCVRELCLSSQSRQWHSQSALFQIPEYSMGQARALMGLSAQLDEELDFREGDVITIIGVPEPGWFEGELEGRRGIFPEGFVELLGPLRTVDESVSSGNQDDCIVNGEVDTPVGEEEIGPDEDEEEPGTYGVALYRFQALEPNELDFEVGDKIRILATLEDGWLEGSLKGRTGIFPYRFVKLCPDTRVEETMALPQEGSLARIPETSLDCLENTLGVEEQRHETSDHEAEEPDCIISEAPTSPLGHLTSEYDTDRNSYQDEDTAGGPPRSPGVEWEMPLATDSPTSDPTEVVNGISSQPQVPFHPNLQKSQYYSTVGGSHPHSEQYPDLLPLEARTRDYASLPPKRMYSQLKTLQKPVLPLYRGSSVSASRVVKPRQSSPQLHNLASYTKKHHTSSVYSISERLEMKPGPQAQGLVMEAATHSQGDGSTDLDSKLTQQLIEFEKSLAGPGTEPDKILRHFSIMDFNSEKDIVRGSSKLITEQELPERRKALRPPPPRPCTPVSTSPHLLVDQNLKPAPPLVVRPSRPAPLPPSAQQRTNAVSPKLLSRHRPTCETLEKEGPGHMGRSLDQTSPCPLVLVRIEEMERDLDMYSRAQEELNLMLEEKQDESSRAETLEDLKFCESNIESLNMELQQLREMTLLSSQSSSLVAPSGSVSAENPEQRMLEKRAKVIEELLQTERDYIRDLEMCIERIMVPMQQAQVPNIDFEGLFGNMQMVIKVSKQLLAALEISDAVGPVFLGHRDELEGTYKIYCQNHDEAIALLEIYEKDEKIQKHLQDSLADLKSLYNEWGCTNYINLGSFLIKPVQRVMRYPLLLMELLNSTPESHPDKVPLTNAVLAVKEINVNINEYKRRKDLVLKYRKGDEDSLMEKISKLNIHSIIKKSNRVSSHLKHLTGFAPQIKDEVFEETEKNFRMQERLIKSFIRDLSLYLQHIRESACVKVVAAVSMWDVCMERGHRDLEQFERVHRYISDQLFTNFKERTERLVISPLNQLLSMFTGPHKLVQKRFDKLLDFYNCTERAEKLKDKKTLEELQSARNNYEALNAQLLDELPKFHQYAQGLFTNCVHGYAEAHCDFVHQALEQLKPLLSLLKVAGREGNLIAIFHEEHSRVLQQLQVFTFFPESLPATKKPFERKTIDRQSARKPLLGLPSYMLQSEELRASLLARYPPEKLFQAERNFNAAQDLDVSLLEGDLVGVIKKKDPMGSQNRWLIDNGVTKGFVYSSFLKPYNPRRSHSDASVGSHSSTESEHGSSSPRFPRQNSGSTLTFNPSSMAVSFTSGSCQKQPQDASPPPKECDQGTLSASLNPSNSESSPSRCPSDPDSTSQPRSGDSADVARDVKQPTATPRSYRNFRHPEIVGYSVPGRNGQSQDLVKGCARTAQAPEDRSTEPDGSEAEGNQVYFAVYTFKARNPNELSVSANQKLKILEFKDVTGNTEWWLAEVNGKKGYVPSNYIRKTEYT

This experiment addresses T1, GST-tagged wild-type (WT) Dynamin 2 (rat) (UniProt P39052).
T1 sequence: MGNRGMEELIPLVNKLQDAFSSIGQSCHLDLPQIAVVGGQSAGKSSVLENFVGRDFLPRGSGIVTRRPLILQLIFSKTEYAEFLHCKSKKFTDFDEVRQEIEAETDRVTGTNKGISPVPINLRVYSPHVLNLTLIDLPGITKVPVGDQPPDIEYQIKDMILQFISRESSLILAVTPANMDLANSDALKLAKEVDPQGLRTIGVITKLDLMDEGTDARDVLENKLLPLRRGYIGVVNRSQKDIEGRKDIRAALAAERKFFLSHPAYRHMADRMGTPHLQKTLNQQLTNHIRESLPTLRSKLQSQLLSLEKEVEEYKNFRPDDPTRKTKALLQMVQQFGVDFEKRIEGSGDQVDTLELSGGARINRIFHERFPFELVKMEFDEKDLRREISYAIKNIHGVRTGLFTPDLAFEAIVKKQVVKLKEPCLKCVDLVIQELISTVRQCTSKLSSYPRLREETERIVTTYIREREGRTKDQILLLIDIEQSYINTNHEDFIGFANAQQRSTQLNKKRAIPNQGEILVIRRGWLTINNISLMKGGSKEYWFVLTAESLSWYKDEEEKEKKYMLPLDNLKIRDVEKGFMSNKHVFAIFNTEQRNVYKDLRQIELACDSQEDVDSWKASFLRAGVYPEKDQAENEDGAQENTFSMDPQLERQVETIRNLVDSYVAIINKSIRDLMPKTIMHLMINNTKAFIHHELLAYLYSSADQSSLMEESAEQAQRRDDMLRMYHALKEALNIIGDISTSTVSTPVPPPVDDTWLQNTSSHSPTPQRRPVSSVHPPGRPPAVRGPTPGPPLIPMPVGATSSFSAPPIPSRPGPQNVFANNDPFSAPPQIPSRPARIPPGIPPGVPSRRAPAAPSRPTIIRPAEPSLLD
The experiment can be described thus: pull-down.

For the substance “Tuba isoform 1 (endogenous, Caco-2 BBE1 cells) (from UniProt Q6XZF7 1-1577)”, the binding result is “binds”.

The values above are taken from publication doi:10.1101/2024.04.10.588880.
